# Screening data, single-dose tests

Protein sequences, listed by entry. Tags and fused reporters are not part of them.
UniProt P9WPC5, whole entry: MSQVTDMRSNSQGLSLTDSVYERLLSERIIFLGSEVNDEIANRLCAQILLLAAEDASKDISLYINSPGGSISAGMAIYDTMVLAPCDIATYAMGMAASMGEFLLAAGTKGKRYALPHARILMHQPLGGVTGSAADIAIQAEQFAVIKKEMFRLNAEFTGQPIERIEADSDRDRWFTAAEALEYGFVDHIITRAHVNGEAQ
UniProt P9WPC3, whole entry partner: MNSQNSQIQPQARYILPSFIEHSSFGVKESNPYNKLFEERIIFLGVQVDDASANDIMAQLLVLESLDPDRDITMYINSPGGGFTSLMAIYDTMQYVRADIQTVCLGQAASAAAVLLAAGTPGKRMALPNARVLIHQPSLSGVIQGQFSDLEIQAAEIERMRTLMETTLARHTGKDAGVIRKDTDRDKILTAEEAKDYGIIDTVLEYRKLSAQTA
UniProt P9WFT3, whole entry: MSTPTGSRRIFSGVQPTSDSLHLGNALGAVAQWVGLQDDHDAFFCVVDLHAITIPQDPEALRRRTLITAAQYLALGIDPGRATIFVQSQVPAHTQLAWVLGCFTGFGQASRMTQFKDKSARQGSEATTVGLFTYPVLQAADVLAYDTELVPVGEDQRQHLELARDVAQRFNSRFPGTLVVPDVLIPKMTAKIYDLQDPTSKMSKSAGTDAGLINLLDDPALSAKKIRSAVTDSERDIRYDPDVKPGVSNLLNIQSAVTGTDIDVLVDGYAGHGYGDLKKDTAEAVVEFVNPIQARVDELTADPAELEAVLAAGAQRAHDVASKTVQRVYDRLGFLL
UniProt P9WNZ1, whole entry: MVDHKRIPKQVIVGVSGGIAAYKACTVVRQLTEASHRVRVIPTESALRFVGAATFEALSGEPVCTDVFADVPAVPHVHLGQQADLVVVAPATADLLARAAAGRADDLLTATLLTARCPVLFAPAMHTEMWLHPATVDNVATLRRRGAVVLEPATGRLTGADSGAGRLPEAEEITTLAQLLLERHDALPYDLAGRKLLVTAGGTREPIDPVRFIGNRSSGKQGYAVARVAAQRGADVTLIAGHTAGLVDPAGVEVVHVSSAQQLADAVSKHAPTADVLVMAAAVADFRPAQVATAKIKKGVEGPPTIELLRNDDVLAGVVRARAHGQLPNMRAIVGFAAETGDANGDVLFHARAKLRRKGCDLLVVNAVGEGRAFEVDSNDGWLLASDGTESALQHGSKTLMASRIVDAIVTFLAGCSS

ClpP1P2: 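Protease assay of ClpP1P2, read by the AMC dye that it sets free. Target: ClpP1P2, Mycobacterium tuberculosis (UniProt P9WPC5 and UniProt P9WPC3). Compounds at 50 µM. Direction is inferred from only a few compounds that gave an IC50; most scored high, so higher reads as stronger inhibition. Most other retested compounds had strongly negative values. Of about 69,000 compounds tested this way, about 10 (0.015%) reached 50% or more in at least one test.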
Toxoplasma: 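Assay of Toxoplasma gondii numbers, read through their beta-galactosidase reporter with a colour substrate. Tested at 10 µM. The record gives no direction; the compounds picked for IC50 retests had high values, so higher reads as fewer parasites. Of about 67,000 compounds tested this way, about 260 (0.38%) reached 50% or more in at least one test.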
MtTrpRS: 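Enzyme assay of tryptophanyl-tRNA synthetase; the read-out is not stated. Target: Tryptophan-tRNA ligase, Mycobacterium tuberculosis (UniProt P9WFT3). Compounds at 10 µM. Higher most likely means stronger inhibition; the record gives no direction and few retests gave an IC50. Size under these conditions: about 65,000 compounds, about 64 of them at 50% or above in at least one test.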
CoaBC: 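Coenzyme A biosynthesis protein CoaBC, Mycobacterium tuberculosis (UniProt P9WNZ1). Enzyme assay of CoaBC with a phosphate dye (Biomol Green) read at 650 nm. Concentration: 30 µM. Higher reads as stronger inhibition, judged from the few compounds that gave an IC50. Most strong results did not repeat in a second test. Of about 67,000 compounds tested this way, about 40 (0.06%) reached 50% or more in at least one test.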

Each number is a percent effect as filed.
How 0% and 100% were set is not recorded. Most values in the screen are low, and negative values occur.
The compounds are a random part of those screened.
A dash means the value is not listed here; it may have been measured.

SMILES,ClpP1P2,Toxoplasma,MtTrpRS,CoaBC
Cl.O=C1CC2(CCCNC2)C(=O)N1Cc1cccc(Cl)c1 (stereo not shown),-,7.507,-,-
CC1CCN(S(=O)(=O)c2cccn(CC(=O)N3CCOCC3)c2=O)CC1,7.616,-3.586,-4.623,14.67
COCc1cccc(S(=O)(=O)N2CCSCC2)c1,-7.717,14.34,0.7772,7.621
Cn1nccc1C(=O)N1Cc2ccccc2OC2(CCOCC2)C1,-10.6,4.832,-4.116,-0.4866
CCn1cc(C(=O)N2CCCC3(CCC(=O)N(CCC(C)C)C3)C2)cn1 (stereo not shown),1.879,16.72,3.936,14.97
O=C(O)C(F)(F)F.O=C(c1ncccn1)N1CCC2(CC1)COC(COc1ccccn1)C2 (stereo not shown),-,4.935,-,-
CN(c1cccnn1)C1CCN(C(=O)Cc2c[nH]c3ccccc23)CC1,-12.89,-7.311,-4.237,-0.5821
O=C(Nc1ccc2c(c1)OCO2)c1ccc(N2CCCC2)nn1,9.034,3.562,-2.68,-1.272
CCc1noc(C)c1C(=O)Nc1cnn(CC(=O)NC2CCCC2)c1,-6.06,4.716,3.906,-3.273
Cc1ccccc1OC1CCN(C(=O)CNC(=O)N(C)C)CC1,7.921,-5.889,-0.7435,17.27
Cl.Cl.[H][C@@]12CNC[C@]1([H])N(Cc1ccsc1)CCO2,-,-9.41,-,-
Cn1nnnc1SCCNC(=O)CC1CCc2ccccc21 (stereo not shown),2.304,8.346,2.621,12.36
O=C(NCCc1cccnc1)NCCc1cccs1,7.348,-0.8409,0.6849,-4.808
Cc1nc(CN2C[C@@H]3OCCN(c4ncc(F)cn4)[C@@H]3C2)cs1,-6.999,-,0.3148,2.665
Cc1csc([C@H]2C[C@@H]3CCN(C(=O)c4cnccn4)C[C@H]3O2)n1,-8,-,-5.976,1.474
COC(=O)c1cc(C(=O)N2CCC(C)CC2)n(-c2ccccc2)n1,-15.69,-19.65,2.448,-2.915
Cc1cnc(CN(C)C2CCN(CCCc3cnn(C)c3)C2)o1 (stereo not shown),-36.05,-18.15,-1.371,6.005
Cc1cccc2[nH]c(C3CCCN(Cc4ccccc4C(=O)O)C3)nc12 (stereo not shown),19.75,13.74,7.518,0
CC(Cn1cncn1)NC(=O)NCc1csc(N(C)C)n1 (stereo not shown),1.493,-6.669,-4.157,9.67
Cn1ncnc1CNc1ccc2c(c1)N(C(=O)OC(C)(C)C)CCC2,-8.866,0.2185,-0.1432,-1.34
CCOCC(=O)N1CCC2(CC1)COCCN2CCN(C)C.O=C(O)C(F)(F)F.O=C(O)C(F)(F)F,-,-5.831,-,-
Cc1cccc(CN2C[C@H](OCc3ccccn3)[C@H]3COC[C@H]32)n1,-3.772,-,-,-2.222
O=C(N1CCOCC1)[C@@]12CCO[C@@H]1CCN(CC1CCCC1)C2,-10.18,-,1.383,-2.005
CC(=O)N1CCC2(CC1)CN(C(=O)c1cccnc1)c1ccc(F)cc12.O=C(O)C(F)(F)F,-,-26.21,-,-
O=C(c1cccc(NCc2cccc(F)c2)c1)N1CCC(O)CC1,-6.018,2.754,2.58,5.804
Cc1cc(CC2COc3ccccc3C2)cnc1N (stereo not shown),0.3607,4.688,7.518,5.141
CC(=O)NCC(=O)N1CCCC1c1ccc(CN2CCOCC2)cn1 (stereo not shown),-5.401,-2.214,5.078,11.24
Cc1ccc(N2CCCN(C(=O)CC3C=CCC3)CC2)nn1 (stereo not shown),-12.04,-7.499,-2.12,-5.921
CN(C)C(=O)N1CCOCC2(CCN(c3ccccn3)C2)C1 (stereo not shown),-15.85,-,-2.515,-6.608
COc1cccc(-c2ccc(CNC(=O)c3ccc(=O)n(C)c3)cc2)c1,-6.514,7.309,0.5708,3.606
Cc1ccc(NCc2cncc3c2CCN(C(=O)C2CC=CC2)C3)nn1,2.515,-,3.882,3.934
Cc1ccc(CN2CC[C@@H]3[C@H]2CCC(=O)N3Cc2ccncc2)s1,12.33,-,13.25,-0.5076
Cc1cc(C[S+]([O-])CC(=O)NCC(C)C)no1 (stereo not shown),5.339,2.859,-2.318,1.928
CN1CCN(c2ccc(NCc3ccc(OC(F)(F)F)cc3)cn2)CC1,-4.564,1.529,6.442,4.994
Cc1cc(N2CCC(N3CCOCC3)C2)n2nc(C)c(C)c2n1 (stereo not shown),-11.29,-0.2341,0.9428,-1.091

The last 4 entries again:

Cc1ccc(CN2CC[C@@H]3[C@H]2CCC(=O)N3Cc2ccncc2)s1 gave ClpP1P2: 12.33%; MtTrpRS: 13.25%; CoaBC: -0.5076%.
Cc1cc(C[S+]([O-])CC(=O)NCC(C)C)no1 (stereo not shown) gave ClpP1P2: 5.339%; Toxoplasma: 2.859%; MtTrpRS: -2.318%; CoaBC: 1.928%.
CN1CCN(c2ccc(NCc3ccc(OC(F)(F)F)cc3)cn2)CC1 gave ClpP1P2: -4.564%; Toxoplasma: 1.529%; MtTrpRS: 6.442%; CoaBC: 4.994%.
Cc1cc(N2CCC(N3CCOCC3)C2)n2nc(C)c(C)c2n1 (stereo not shown) gave ClpP1P2: -11.29%; Toxoplasma: -0.2341%; MtTrpRS: 0.9428%; CoaBC: -1.091%.

The values are deposited in ChEMBL (CHEMBL3988442, “University of Dundee, Small-Polar-MMV Screening Library” (2021)).